In patent US20240269215A1, “NUTRITIONAL COMPOSITION FOR MUSCLE MASS, STRENGTH AND FUNCTION” (N.V. Nutricia, priority 2021, published 2024):
The name of at least one read-out is uncertain.

Assay: Leucine bioavailability (plasma leucine from dry blood spots) in aged mice
Format: in vivo
Conditions: ratio of bioavailability factors
Procedure: Aged mice (animal model: see example 1) were fed with one of the 4 supplements at TO and after 10 minutes a droplet of blood from the tail was collected and stamped on a card. […] The results are plotted in FIG. 2A. Since feces was not collected, it was not possible to precisely calculate the N in- and output. […] Summarized, the amount of leucine present in the intact protein was known from the analyses of the pure protein sources (data sheets available). […] Since fasted mice also show a baseline level of plasma leucine, these values were then deducted from the obtained leucine plasma values (column D in table below). […] It was then calculated the contribution of the increase from the intact Leu (column E) and from the added free leucine (column F).

CC(C)C[C@H](N)C(=O)O [free leucine, L-leucine]
leucine bioavailability relative to the plant-based (pea+soy) blend: 4.1 ×
